Primary screen of a compound library

The values are deposited in ChEMBL (CHEMBL3988442, “University of Dundee, Small-Polar-MMV Screening Library” (2021)).

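Assay of Toxoplasma gondii numbers, read through their beta-galactosidase reporter with a colour substrate. Compounds at 50 µM. The record gives no direction; the compounds picked for IC50 retests had high values, so higher reads as fewer parasites. Of about 18,000 compounds tested this way, about 170 (0.94%) reached 50% or more in at least one test.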

Results are given as percent effect. The record does not define 0% and 100%; most values in the screen are far below 50% and negative numbers occur (in some assays of this library far below -100). Compounds were drawn at random from those tested, without regard to their results.

- COCC(C)NC(=O)c1cncn1-c1ccc(F)cc1 (stereo not shown) | -6.243%
- CN(CCOc1ccccc1)C(=O)c1cnn(C)c1N | 1.678%
- CCc1nn(C)c(N)c1CC | 6.039%
- CCNC(=O)NCCN(C)C | 21%
- CCN(CC)C(=O)N(C)Cc1nnc[nH]1 | -5.299%
- CCN[C@H](C)CNC(=O)c1ccccc1 | -7.513%
- Cc1nn(C)cc1C(=O)N[C@@H]1CCOC[C@H]1O | -9.127%
- C=C(Br)CN(C)C(C)c1cccc(S(N)(=O)=O)c1 (stereo not shown) | -2.889%
- CCC(=O)n1nc(-c2ccco2)nc1N | -10.42%
- CCCOC(=O)C(C)NC(=O)c1cccs1 (stereo not shown) | 5.192%
- Cn1ccnc1SCC(=O)NC(=O)NCc1ccco1 | -3.904%
- COc1cc(F)c(CN2CCOCC2CO)c(F)c1 (stereo not shown) | -3.093%
- CCOC(=O)c1cccnc1-n1cc(Br)cn1 | 21.93%
- CC(C)(CC(N)=O)NC(=O)c1ccccn1 | 3.694%
- CN1CCCN(Cc2ccc3c(c2)OCO3)CC1 | -8.924%
- CCC(=O)Nc1ccccc1C(=O)Nc1ccccn1 | -3.033%
- CC(C)(C)C(=O)N1CCCN2CCCC2C1 (stereo not shown) | 2.43%
- CC(=O)NCCCS(=O)(=O)c1ncccc1Cl | 60.86%
- NCCS(=O)(=O)c1ccc(Br)cc1 | 1.125%
- CCOc1cc(Cl)c(CNCCO)cc1OC | 17.81%
- O=S1(=O)CCC(n2cccn2)C1 (stereo not shown) | 9.566%
- CC1CCCN(C(=O)c2ccc3nnnn3c2)C1 (stereo not shown) | 1.607%
- CN(CCCc1ccccc1)CC(=O)NCCC#N | 13.56%
- COc1cccc(CN(C)C(=O)c2occc2C)n1 | 1.387%
- c1cc(-c2nnc(CC3CCNC3)[nH]2)ccn1 (stereo not shown) | 6.65%
- CCCc1nc(C(=O)N2CCC3(CCCNC3)C2)cs1 (stereo not shown) | -11.26%
- O=C(Cc1ccc(F)cc1)N1CCNCC1 | -14.4%
- CC(C)C(=O)NCCNCc1cccc(C#N)c1 | -7.165%
- NS(=O)(=O)CC1CCCN1 (stereo not shown) | -3.403%

For reference, 2 entries once more:

* Cc1nn(C)cc1C(=O)N[C@@H]1CCOC[C@H]1O | -9.127%
* CCN[C@H](C)CNC(=O)c1ccccc1 | -7.513%